Results on one molecule are retold here after publication PMC9975585.

This experiment addresses CH25H bait of the yeast two-hybrid assay (pBT3-STE-CH25H) (chicken). Nature of the experiment: two-hybrid; split-ubiquitin vectors: bait pBT3-STE-CH25H, prey pPR3-N-CHMP4B, co-transformed into yeast strain NMY51; ten-fold serial dilutions on SD lacking Leu and Trp and on SD lacking Ade, His, Leu and Trp with 30 mm 3AT; 5 d.

Results are given in words; binding and its absence hold for the method and conditions named. Some results given as binding are weak or reduced against the parent protein; the word gives no strength.

B1: CHMP4B prey of the yeast two-hybrid assay (pPR3-N-CHMP4B) (protein, UniProt Q5ZHP5 1-227)
chain: MSGILGKLFGAGAGGKGAGKGPSPQEAIQRLRDTEEMLSKKQEFLEKKIEQELAAARKHGTKNKRAALQALKRKKRYEKQLAQIDGTLSTIEFQREALENANTNTEVLKNMGFAAKAMKAAHDNMDIDKVDELMQDIAEQQELADEISTAISKPVGFGEEFDEDELMAELEELEQEELDKNLLEISGPETVPLPNVPSISIPSKPAKKKEEEEDDDMKELEAWAGNM
With B1, the binding entry is “binds”.
